These results are taken from paper doi:10.1101/617092.

Protein sequences, listed by entry. Tags and fused reporters are not part of them. Lines headed by an entry give the natural chain unless they say otherwise; changes in a name come on top. Residues count along the entry.
UniProt P08195, residues 102-630: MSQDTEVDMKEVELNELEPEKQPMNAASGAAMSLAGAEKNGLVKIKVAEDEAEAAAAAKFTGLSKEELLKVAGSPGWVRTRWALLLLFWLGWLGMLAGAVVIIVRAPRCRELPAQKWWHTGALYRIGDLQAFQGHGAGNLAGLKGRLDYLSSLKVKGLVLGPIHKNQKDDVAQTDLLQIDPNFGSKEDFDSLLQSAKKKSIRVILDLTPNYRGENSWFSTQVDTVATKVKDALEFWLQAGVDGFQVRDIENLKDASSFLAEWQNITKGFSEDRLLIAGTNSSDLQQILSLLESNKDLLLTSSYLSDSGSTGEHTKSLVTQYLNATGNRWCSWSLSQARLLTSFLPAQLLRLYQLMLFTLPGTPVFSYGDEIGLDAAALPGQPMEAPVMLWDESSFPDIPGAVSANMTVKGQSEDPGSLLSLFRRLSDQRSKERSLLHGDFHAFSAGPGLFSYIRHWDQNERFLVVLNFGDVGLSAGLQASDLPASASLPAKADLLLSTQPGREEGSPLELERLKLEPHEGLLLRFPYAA
UniProt Q9HBA0: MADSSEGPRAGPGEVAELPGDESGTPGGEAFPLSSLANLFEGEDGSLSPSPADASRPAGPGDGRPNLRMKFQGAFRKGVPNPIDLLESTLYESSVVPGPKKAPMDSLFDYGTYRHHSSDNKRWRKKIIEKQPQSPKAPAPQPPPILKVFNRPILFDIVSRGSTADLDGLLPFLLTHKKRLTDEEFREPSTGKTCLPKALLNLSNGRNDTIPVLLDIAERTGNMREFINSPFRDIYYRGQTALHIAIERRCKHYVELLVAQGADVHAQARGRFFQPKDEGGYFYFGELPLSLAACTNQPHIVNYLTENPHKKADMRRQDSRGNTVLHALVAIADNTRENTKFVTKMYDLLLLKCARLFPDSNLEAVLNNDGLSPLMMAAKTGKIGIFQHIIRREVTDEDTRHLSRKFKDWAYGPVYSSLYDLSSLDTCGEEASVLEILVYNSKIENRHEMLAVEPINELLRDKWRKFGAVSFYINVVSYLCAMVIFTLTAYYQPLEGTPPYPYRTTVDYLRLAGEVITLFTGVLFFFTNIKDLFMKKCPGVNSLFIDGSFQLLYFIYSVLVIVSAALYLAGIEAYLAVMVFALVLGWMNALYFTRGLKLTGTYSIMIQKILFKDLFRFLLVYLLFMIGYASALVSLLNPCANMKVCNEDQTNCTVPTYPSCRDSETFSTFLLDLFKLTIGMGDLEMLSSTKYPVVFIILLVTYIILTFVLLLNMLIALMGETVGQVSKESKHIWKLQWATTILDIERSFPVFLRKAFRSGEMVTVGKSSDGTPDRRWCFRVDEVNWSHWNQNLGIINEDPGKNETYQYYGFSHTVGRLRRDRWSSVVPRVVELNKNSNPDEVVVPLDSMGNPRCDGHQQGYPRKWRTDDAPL

For assay [1], the target named is CD98hc in HEK293T lysate (precipitated by anti-CD98hc antibody) (human (endogenous in HEK293T)) (UniProt P08195). In words: co-IP.
The target in assay [2] is TRPV4 (Transient Receptor Potential Vanilloid 4), endogenous, HUVE cells (human (endogenous in HUVE)) (UniProt Q9HBA0). In words: proximity ligation.
Assay [3] deals with FLAG tagged CD98hc(WT), 1-210 aa of CD98hc (UniProt P08195). The assay is described as follows: co-IP.
Assay [4] deals with TRPV4 in HEK293T lysate (precipitated by anti-TRPV4 antibody) (human (endogenous in HEK293T)) (UniProt Q9HBA0). The assay is described as follows: co-IP.

No constants are given. Whether binding was seen depends on the method and setting. In cells and extracts the contact can be indirect. For some of these results: A result given as binding can be weak or reduced; the word gives no strength.

As for TRPV4(ΔPR)–myc (from UniProt Q9HBA0), the binding entry in assay [1] is on record as “binds”. For “FLAG tagged CD98hc(WT), 1-210 aa of CD98hc (from UniProt P08195) (domain or fragment)”, in assay [2], the binding entry is on record as “binds”. “TRPV4 overexpressed in HEK293T cells (with the FLAG-CD98hc constructs) (from UniProt Q9HBA0 1-871)”: in assay [3], the binding entry is reported as “binds”. CD98hc(ΔHH)-HA (from UniProt P08195): in assay [4], the binding entry is “no binding”.
